Experimental data published in PubChem BioAssay AID1662 (Broad Institute, 2009).
In all, about 300,000 compounds went through this assay and about 4,000 (1.3%) were called active. Inconclusive results, whose numbers are uncertain, are shown with a selection of clear calls.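 Rule for the calls: active = mean replicate score, as percent of positive control median, at least 50; inconclusive = mean below 50 but one replicate at or above 50; inactive = mean and every replicate below 50.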

Test: kanamycin survival loss of SKKanGAS strain – BacTiter-Glo luminescence, streptokinase expression inhibitor project, primary screen (AID 1662);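 note: strain carries kanamycin resistance gene driven by streptokinase promoter and grows in 40 µg/ml kanamycin; loss of luminescence reflects streptokinase promoter inhibition or plain growth inhibition; 0% = median of DMSO wells and 100% = positive control at its reference dose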
Conditions: S. pyogenes SKKanGAS, kanamycin growth, 6 h, at 7.5 µM, hits give high values

SMILES	inhibition
COc1ccccc1Cn1c(=O)c2ccccc2n2c(Sc3ncnc4sccc34)nnc12	inactive: 5.07%
CC(C)(C)OC(=O)N[C@@H](Cc1ccccc1)c1nnc(S(=O)(=O)Cc2cccc(F)c2)o1	inconclusive: 45.1%
Cc1ccc(NC(=O)NCc2ccccn2)cc1Cl	inconclusive: 44.5%
Cc1cc(O)ccc1NC(=S)NC(=O)c1cncc(Br)c1	active: 73.7%
Oc1cccc(NC(=S)N=Nc2c(O)[nH]c3ccc(Br)cc23)c1	active: 89.3%
Cc1ccc(Cn2c(=S)[nH]c3ccc(N4CCOCC4)cc3c2=O)o1	inactive: 9.15%
FC(F)C(F)(F)C(F)(F)C(F)(F)c1cc(-c2ccccc2)n[nH]1	inactive: 12.5%
O=C(N/N=C/c1cc([N+](=O)[O-])ccc1O)c1cccc2cc[nH]c12	active: 89.4%
N#Cc1c(NC(=O)CSc2n[nH]c(Cc3ccccc3)n2)oc(-c2ccccc2)c1-c1ccccc1	inconclusive: 44%
O=C(CN1CCCC1)Nc1ccc(NC(=O)Nc2ccccc2)cc1	inconclusive: 22.4%
Cc1cccc(NC(=S)Nc2ccc3cn[nH]c3c2)c1	inactive: 2.46%
COc1ccc(OCC(O)CNC(=O)c2ccc(Br)cc2)cc1 (stereo unspecified)	inactive: -1.91%
C/C(=N\NC(=O)c1ccccc1O)C1C(=O)c2ccccc2C1=O	active: 52%
CC(=O)c1cccc(NC(=O)c2ccc([N+](=O)[O-])o2)c1	inactive: 23.3%
COc1cc(/C=C2\SC(=O)N(c3ccccc3Cl)C2=O)cc([N+](=O)[O-])c1O	inconclusive: 35.8%
Oc1cccc(/C=N/N(Cc2ccccc2)c2ccccc2)c1	inconclusive: 36%
CCCN(CC(=O)Nc1ccccc1C)C(=O)c1ccc(=O)n(Cc2ccccc2)n1	inactive: -4.35%
O=C1N/C(=N/N=C/c2ccccc2O)SC1Cc1ccc(F)cc1 (stereo unspecified)	inconclusive: 47.9%
COc1cccc(C(=O)Nc2cccc(-c3nnc(-c4ccccc4)o3)c2)c1	inconclusive: 49.1%

Looked up by compound from the entries so far, 4 records:
SMILES	inhibition
CC(C)(C)OC(=O)N[C@@H](Cc1ccccc1)c1nnc(S(=O)(=O)Cc2cccc(F)c2)o1	inconclusive: 45.1%
Oc1cccc(NC(=S)N=Nc2c(O)[nH]c3ccc(Br)cc23)c1	active: 89.3%
COc1cc(/C=C2\SC(=O)N(c3ccccc3Cl)C2=O)cc([N+](=O)[O-])c1O	inconclusive: 35.8%
O=C1N/C(=N/N=C/c2ccccc2O)SC1Cc1ccc(F)cc1 (stereo unspecified)	inconclusive: 47.9%

More entries

SMILES	inhibition
COc1cccc(CC(=O)OCC(=O)Nc2nnc(-c3ccccc3)o2)c1	inconclusive: 45.5%
Cc1ccc2nc(N(CCCN(C)C)C(=O)c3ccc(S(=O)(=O)N4CCOCC4)cc3)sc2c1	inconclusive: 37.6%
O=C(NNC(=O)c1cc(-c2ccccc2)nc2ccccc12)Nc1cccc(Cl)c1	inconclusive: 48.5%
O=C(O)COc1ccc(/C=N/Nc2nc(Nc3ccccc3)nc(N3CCCCC3)n2)cc1	active: 56.9%
CCCCc1sc(-c2c(C#N)c(N)nc3c2CCCCC3)cc1[N+](=O)[O-]	inactive: 20.2%
C[C@H]1[C@H](C)CC[C@]2(C(=O)O)CC[C@]3(C)C(=CC[C@@H]4[C@@]5(C)C[C@@H](O)[C@H](O)C(C)(C)[C@@H]5CC[C@]43C)[C@H]12	active: 103%
CCCCCc1ccc(OCCCC[n+]2ccccc2)c(CCCCC)c1	inconclusive: 48.9%
CC(=O)Oc1ccc(-c2nc(-c3cccnc3)no2)cc1	inconclusive: 46.3%
CN(c1ccccc1)C(c1ccc(F)cc1)c1nnnn1C1CCCC1 (stereo unspecified)	inactive: -2.29%
CCCC(=O)NCCc1ccc(F)cc1	inconclusive: 33.6%
COc1ccc(/C=N/n2c(-c3cccs3)n[nH]c2=S)cc1	inconclusive: 47.6%
Clc1ccccc1OCCCCn1ccnc1	active: 58.7%
COc1ccc(N=C2S/C(=C\c3ccc(OC(C)C(=O)O)c(OC)c3)C(=O)N2CCc2c[nH]c3ccccc23)cc1 (stereo unspecified)	inconclusive: 35.4%
O=C(Nc1nnc(-c2ccc(F)cc2)o1)c1cc(Cl)sc1Cl	active: 105%
Oc1ccc(COCc2ccccc2)c2cccnc12	inconclusive: 46.9%
Cc1cccc(NC(=O)N2CCCCCC2)c1	inconclusive: 38.9%
CCC(NC(=O)CCc1c(C)c2cc3c(C)c(C)oc3cc2oc1=O)C(=O)N[C@@H](Cc1ccccc1)C(=O)O (stereo partly specified)	active: 61%
Cn1c(N)c(C(=O)COC(=O)/C=C/c2ccc(OC(F)F)cc2)c(=O)n(C)c1=O	inconclusive: 32.3%
Cn1c(SCC(=O)NCCc2ccccc2)nc2c([nH]c3ccccc32)c1=O	inactive: -4.75%

SMILES	inhibition
CC1CCc2sc(NC(=O)c3ccc(N4C(=O)CCC4=O)cc3)c(C(N)=O)c2C1 (stereo unspecified)	inconclusive: 44.6%
CCn1c(=S)sc2c(=O)[nH]c(SCC(=O)Nc3cc(OC)ccc3OC)nc21	inconclusive: 49.2%
COc1ccc(N(CC(=O)NCCSCc2cccc(Cl)c2)S(C)(=O)=O)cc1Cl	inconclusive: 49.1%
O=C1CSc2ccc(C(=O)Nc3cccc(S(=O)(=O)Nc4ccc(Br)cc4)c3)cc2N1	active: 73.2%
Clc1ccc(-c2csc(N3CCc4ccccc4C3)n2)cc1	active: 55.6%
[O-][n+]1c2ccccc2[n+]([O-])c2cc(O)ccc21	inconclusive: 38.2%
CCCS(=O)(=O)c1ccc(COC(=O)Cc2ccc([N+](=O)[O-])cc2)cc1	inactive: -2.7%
Cc1ccc(-n2c(O)c(C=Nc3ccccc3-c3n[nH]c(=S)[nH]c3=O)c3ccccc3c2=O)cc1C	inconclusive: 42.2%
O=C(N/N=C/c1ccc(OC(F)F)cc1)c1cccc(S(=O)(=O)N2CCOCC2)c1	inactive: -2.78%
C[C@@H]1CCC(=O)N(CC[C@H](Sc2ccccc2)c2ccccc2)CC1	inactive: 5.38%
Cc1ccc(C23CC4CC(CC(C(=O)N5CCN(C)CC5)(C4)C2)C3)cc1	inconclusive: 31.9%
O=c1cc(O)n(Cc2ccc(F)cc2)c(=O)[nH]1	inactive: 1.17%
NC(N)=N/N=C/c1ccc(OCc2ccccc2)c(OCc2ccccc2)c1	inconclusive: 45.2%
COc1ccc(OC)c(NC(=O)NC2CCCc3ccccc32)c1 (stereo unspecified)	inconclusive: 48.3%
Cc1ccccc1OCCCCc1c(C)n[nH]c1C	active: 94.5%
Cc1cc(NCc2ccccn2)n2nc(C)c(-c3ccc(Cl)cc3)c2n1	active: 81.1%
CCc1ccc(S(=O)(=O)c2nnn3c2nc(N2CCOCC2)c2ccccc23)cc1	inactive: 8.8%
CCn1cnc2sc(C(=O)Oc3cccc(C)c3)c(C)c2c1=O	inconclusive: 37.1%
